Assay results from article PMC6422423, “Constitutively active BRS3 is a genuinely orphan GPCR in placental mammals” (PLoS Biology, 2019).
These are yes or no findings as the source states them, for the method shown.

Columns and labels:
[1] = biological target: T1, human bombesin receptor subtype-3 (human) (UniProt P32247); experiment: radioligand binding; displacement of 50 pM [125I]-Tyr42-GRP by unlabeled peptide on disaggregated transfected HEK293 cells; 1 h at 21°C; 24.5 mM HEPES pH 7.4, 98 mM NaCl; bound tracer separated by centrifugation; only the binder purified
T1 sequence: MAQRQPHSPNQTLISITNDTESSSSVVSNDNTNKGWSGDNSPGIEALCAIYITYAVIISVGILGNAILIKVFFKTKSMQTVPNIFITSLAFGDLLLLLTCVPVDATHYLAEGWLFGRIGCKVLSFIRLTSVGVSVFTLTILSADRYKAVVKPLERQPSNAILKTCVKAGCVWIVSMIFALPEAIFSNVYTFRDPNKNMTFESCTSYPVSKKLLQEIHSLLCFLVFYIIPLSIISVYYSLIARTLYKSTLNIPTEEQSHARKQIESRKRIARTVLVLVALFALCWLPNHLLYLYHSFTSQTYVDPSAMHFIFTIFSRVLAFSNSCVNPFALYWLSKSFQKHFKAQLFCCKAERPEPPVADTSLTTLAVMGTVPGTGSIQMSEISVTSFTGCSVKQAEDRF

[2] = biological target: T2, mouse bombesin receptor subtype-3 (mouse) (UniProt O54798); experiment: as above
T2 sequence: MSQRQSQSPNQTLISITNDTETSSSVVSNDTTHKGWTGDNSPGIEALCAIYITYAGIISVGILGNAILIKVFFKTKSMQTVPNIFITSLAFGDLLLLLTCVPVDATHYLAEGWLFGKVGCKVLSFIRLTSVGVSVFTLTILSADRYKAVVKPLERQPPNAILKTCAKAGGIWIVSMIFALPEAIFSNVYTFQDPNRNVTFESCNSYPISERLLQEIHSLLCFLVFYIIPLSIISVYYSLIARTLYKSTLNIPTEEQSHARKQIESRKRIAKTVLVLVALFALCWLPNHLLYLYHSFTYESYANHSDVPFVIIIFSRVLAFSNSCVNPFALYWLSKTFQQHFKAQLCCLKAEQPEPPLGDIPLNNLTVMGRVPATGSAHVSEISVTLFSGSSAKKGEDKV

binding [1]: no binding (tested: Ki > 1,000 nM)
binding [2]: no binding (tested: Ki > 1,000 nM)
B1: gastrin-releasing peptide, unlabeled ligand peptide of the radioligand binding assays (peptide)
peptide: APLQPGGSPALTKIYPRGSHWAVGHLM
